Some results were stated once for a whole list of compounds, not compound by compound.
biological target: T1, human motilin receptor (GPR38) (Homo sapiens, UniProt O43193); experiment: GPR38 (Motilin Receptor) Functional Assay, NFAT-beta-lactamase reporter in CHO-K1 cells; assay type: cell-based; details: read-out: EC50 (agonistic activity) in the functional assay; CHO-K1 cell line stably transfected with NFAT-beta-lactamase reporter and human motilin receptor gene
T1 construct: expressed in transfected cells; host or cells: CHO-K1
Method: The potencies and efficacies of the compounds of this invention for GPR38 can be determined by reporter assay performed on the human cloned receptor as described herein.
GPR38 (Motilin Receptor) Functional Assay
A CHO-K1 cell line stably transfected NFAT-beta-lactamase reporter and human motilin receptor gene was used. The cells were cultured in culture medium (Dulbecco's modified eagle medium containing 10% fetal bovine serum, 1 mM sodium pyruvate, 0.1 mM MEM nonessential amino acids, 25 mM HEPES buffer, 50 units/mL penicillin, 50 microg/mL streptomycin, 100 microg/mL zeocin, and 500 microg/mL G418). The cells were harvested with 0.05% trypsin EDTA and centrifuged. The cell pellets were resuspended in the culture medium and plated into a black/clear bottom 384-well plate at a density of 8000 cells per well, then incubated at 37° C. with 5% CO2 for over night (about 20 hours). On the day of assay, the culture medium was aspirated and 20 microL of assay medium (Dulbecco's modified eagle medium containing 100 units/mL penicillin and 100 microg/mL streptomycin) was added to each well, then the cell plates were placed in incubator at 37° C. with 5% CO2 for 1.5 hours. Compounds were prepared in 100% DMSO and these were diluted to 5× of final concentration with assay buffer (Hanks balanced salt solution, 20 mM HEPES, and 0.1% BSA), then dispensed into 384-well plate (5 microL/well). After incubation at 37° C. with 5% CO2 for 4.5 hours, CCF4-AM loading solution (Invitrogen Corp.) was added to each well. After incubation for 2 hours at room temperature, fluorescence intensities were measured by using plate reader FDSS (Hamamatsu Photonics K. K.) with excitation 400 nm, emission 465 nm/540 nm. Agonistic activity (EC50) was calculated from the sigmoidal dose-response curve using GraphPad Prism software (GraphPad Software, Inc.).

Sequences of proteins named here, by UniProt entry; tags and fusion partners are left off. A change or cut given only in a name is not applied to a line headed by its entry.
UniProt O43193: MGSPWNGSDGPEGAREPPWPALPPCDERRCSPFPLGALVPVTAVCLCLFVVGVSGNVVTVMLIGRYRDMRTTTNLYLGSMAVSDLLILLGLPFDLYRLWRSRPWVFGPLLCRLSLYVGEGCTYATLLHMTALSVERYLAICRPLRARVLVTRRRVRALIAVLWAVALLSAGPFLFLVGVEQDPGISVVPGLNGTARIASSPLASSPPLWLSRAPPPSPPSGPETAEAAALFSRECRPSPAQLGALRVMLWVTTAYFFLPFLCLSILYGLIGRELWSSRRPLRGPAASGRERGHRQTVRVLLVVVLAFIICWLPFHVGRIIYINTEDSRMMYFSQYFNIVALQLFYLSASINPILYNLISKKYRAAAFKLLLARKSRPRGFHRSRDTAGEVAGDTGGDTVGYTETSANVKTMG

| Structure (SMILES) | EC50 [µM] |
| --- | --- |
| CC1(C)C(=O)N(C2CCN(C(=O)[C@H](CCc3ccccc3)NC(=O)[C@@H]3CCCCN3)CC2)c2ccccc21 [Example 2, (S)-N-((S)-1-(4-(3,3-dimethyl-2-oxoindolin-1-yl)piperidin-1-yl)-1-oxo-4-phenylbutan-2-yl)piperidine-2-carboxamide] | ≤ 0.1 |
| CC1(C)C(=O)N(C2CCN(C(=O)[C@H](CCc3ccccc3)NC(=O)[C@H]3CCCNC3)CC2)c2ccccc21 [Example 8, (S)-N-((S)-1-(4-(3,3-dimethyl-2-oxoindolin-1-yl)piperidin-1-yl)-1-oxo-4-phenylbutan-2-yl)piperidine-3-carboxamide] | ≤ 0.1 |
| CC1(C)C(=O)N(C2CCN(C(=O)[C@H](CCc3ccccc3)NC(=O)C3CNC3)CC2)c2ccccc21 [Example 9, (S)-N-(1-(4-(3,3-dimethyl-2-oxoindolin-1-yl)piperidin-1-yl)-1-oxo-4-phenylbutan-2-yl)azetidine-3-carboxamide] | ≤ 0.1 |
| CC1(C)C(=O)N(C2CCN(C(=O)[C@H](CCc3ccccc3)NC(=O)C3CCNCC3)CC2)c2ccccc21 [Example 10, (S)-N-(1-(4-(3,3-dimethyl-2-oxoindolin-1-yl)piperidin-1-yl)-1-oxo-4-phenylbutan-2-yl)piperidine-4-carboxamide] | ≤ 0.1 |
| CC1(C)C(=O)N(C2CCN(C(=O)[C@H](CCc3ccccc3)NC(=O)CC3(N)CCCC3)CC2)c2ccccc21 [Example 12, (S)-2-(1-aminocyclopentyl)-N-(1-(4-(3,3-dimethyl-2-oxoindolin-1-yl)piperidin-1-yl)-1-oxo-4-phenylbutan-2-yl)acetamide] | ≤ 0.1 |
| CC1(C)C(=O)N(C2CCN(C(=O)[C@H](CCc3ccccc3)NC(=O)CCNC3CCCC3)CC2)c2ccccc21 [Example 14, (S)-3-(cyclopentylamino)-N-(1-(4-(3,3-dimethyl-2-oxoindolin-1-yl)piperidin-1-yl)-1-oxo-4-phenylbutan-2-yl)propanamide] | ≤ 0.1 |
| COCCN(C)CCC(=O)N[C@@H](CCc1ccccc1)C(=O)N1CCC(N2C(=O)C(C)(C)c3ccccc32)CC1 [Example 15, (S)-N-(1-(4-(3,3-dimethyl-2-oxoindolin-1-yl)piperidin-1-yl)-1-oxo-4-phenylbutan-2-yl)-3-((2-methoxyethyl)(methyl)amino) propanamide] | ≤ 0.1 |
| CN[C@@H]1CC[C@H](C(=O)N[C@@H](Cc2ccc(Cl)cc2)C(=O)N2CCC(N3C(=O)C(C)(C)c4ccccc43)CC2)C1 [Example 21, (1S,3R)—N—((S)-3-(4-chlorophenyl)-1-(4-(3,3-dimethyl-2-oxoindolin-1-yl)piperidin-1-yl)-1-oxopropan-2-yl)-3-(methylamino)cyclopentanecarboxamide] | ≤ 0.1 |
| CN[C@@H]1CC[C@H](C(=O)N[C@@H](Cc2cccc3ccccc23)C(=O)N2CCC(N3C(=O)C(C)(C)c4ccccc43)CC2)C1 [Example 24, (1S,3R)-N-((S)-1-(4-(3,3-dimethyl-2-oxoindolin-1-yl)piperidin-1-yl)-3-(naphthalen-1-yl)-1-oxopropan-2-yl)-3-(methylamino)cyclopentane-carboxamide] | ≤ 0.1 |
| CN[C@@H]1CC[C@H](C(=O)N[C@@H](Cc2ccccc2Cl)C(=O)N2CCC(N3C(=O)C(C)(C)c4ccccc43)CC2)C1 [Example 25, (1S,3R)-N-((S)-3-(2-chlorophenyl)-1-(4-(3,3-dimethyl-2-oxoindolin-1-yl)piperidin-1-yl)-1-oxopropan-2-yl)-3-(methylamino)cyclopentane-carboxamide] | ≤ 0.1 |
| CN[C@@H]1CC[C@H](C(=O)N[C@@H](Cc2ccccc2C)C(=O)N2CCC(N3C(=O)C(C)(C)c4ccccc43)CC2)C1 [Example 26, (1S,3R)-N-((S)-1-(4-(3,3-dimethyl-2-oxoindolin-1-yl)piperidin-1-yl)-1-oxo-3-o-tolylpropan-2-yl)-3-(methyl-amino)cyclopentanecarboxamide] | ≤ 0.1 |

From patent US8697877B2, “Oxyindole derivatives with motilin receptor agonistic activity” (RaQualia Pharma Inc., priority 2009, dated 2014)
